Results from publication PMC4653010.
No constants are given. Whether binding was seen depends on the method and setting. For part of these data: Binding seen in cells or lysates may run through a third protein. Some binding calls cover weakened binding; strength is not graded here. Tags and fused reporters may be left off the sequences shown. Values belong to the molecule of their own block, whether it stands above or below them.

By UniProt entry, the sequences of proteins in these tests, tags left out.
UniProt Q13541: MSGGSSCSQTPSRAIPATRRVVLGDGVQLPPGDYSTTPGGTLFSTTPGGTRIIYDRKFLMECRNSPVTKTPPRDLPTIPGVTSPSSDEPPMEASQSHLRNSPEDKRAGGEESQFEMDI

Legend:
[1] = target: T1, GST-PC-1 (PC-1/PrLZ, prostate Leucine Zipper gene product, fused to glutathione S-transferase) (human) (UniProt P55327); experiment: pull-down; GST-PC-1 immobilised on GST-Sepharose beads, incubated with purified His-4E-BP1 at 4°C for 3 h; beads washed 4 times with lysis buffer; blot with anti-His; both purified
T1 sequence: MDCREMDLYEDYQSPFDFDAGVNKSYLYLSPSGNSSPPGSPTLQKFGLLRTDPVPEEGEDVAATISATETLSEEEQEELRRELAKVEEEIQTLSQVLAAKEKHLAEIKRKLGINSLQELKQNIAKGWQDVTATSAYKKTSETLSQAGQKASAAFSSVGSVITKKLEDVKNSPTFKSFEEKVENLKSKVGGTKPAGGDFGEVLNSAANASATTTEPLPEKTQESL

[2] = target: T2, Myc-PC-1 (PC-1/PrLZ) in LNCaP-pc-1 cells (human) (UniProt P55327); experiment: co-IP; LNCaP-pc-1 lysate (50 mmol/l Tris pH 8.0, 50 mmol/l NaCl, 0.1% Nonidet P-40), anti-myc antibody at 4°C for 3 h, protein A/G-Sepharose for 6 h; blot with anti-4E-BP1
T2 sequence: T1 sequence

[3] = target: GST-4E-BP1 (eukaryotic initiation factor 4E-binding protein 1 fused to glutathione S-transferase) (human) (UniProt Q13541); experiment: pull-down; GST-4E-BP1 immobilised on GST-Sepharose beads, incubated with lysate of 293T cells transfected with pCMV-2Btag-PC-1 at 4°C for 3 h; beads washed 4 times with lysis buffer; blot with anti-Flag; only the target purified

binding [1]: binds
Molecule: His-4E-BP1 (eukaryotic initiation factor 4E-binding protein 1) (from UniProt Q13541 1-118)

binding [2]: binds
Molecule: endogenous 4E-BP1 (eukaryotic initiation factor 4E-binding protein 1) (from UniProt Q13541 1-118)

binding [3]: binds
B1: Flag-PC-1 (PC-1/PrLZ) (protein, UniProt P55327 1-224)
chain: T1 sequence
